Experimental data reported in paper PMC10709431.
Results are given in words; binding and its absence hold for the method and conditions named. Binding seen in cells or lysates may run through a third protein. Some entries that bind do so weakly or less than the wild type.

By UniProt entry, the sequences of proteins in these tests, tags left out.
UniProt Q13131: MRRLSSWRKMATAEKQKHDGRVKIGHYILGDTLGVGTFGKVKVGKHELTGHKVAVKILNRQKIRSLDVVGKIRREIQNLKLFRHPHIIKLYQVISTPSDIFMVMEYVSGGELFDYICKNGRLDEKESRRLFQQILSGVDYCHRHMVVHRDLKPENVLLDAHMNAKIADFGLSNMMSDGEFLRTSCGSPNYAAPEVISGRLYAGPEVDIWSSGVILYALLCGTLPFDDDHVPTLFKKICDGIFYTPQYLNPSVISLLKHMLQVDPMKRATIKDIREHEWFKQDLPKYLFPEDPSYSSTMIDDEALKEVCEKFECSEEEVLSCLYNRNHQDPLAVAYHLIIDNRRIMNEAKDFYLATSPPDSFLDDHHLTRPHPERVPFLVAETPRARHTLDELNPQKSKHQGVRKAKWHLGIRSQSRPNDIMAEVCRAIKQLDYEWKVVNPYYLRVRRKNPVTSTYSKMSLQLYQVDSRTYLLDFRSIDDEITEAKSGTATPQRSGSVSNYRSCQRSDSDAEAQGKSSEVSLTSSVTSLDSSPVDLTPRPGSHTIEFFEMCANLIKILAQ
UniProt Q06210: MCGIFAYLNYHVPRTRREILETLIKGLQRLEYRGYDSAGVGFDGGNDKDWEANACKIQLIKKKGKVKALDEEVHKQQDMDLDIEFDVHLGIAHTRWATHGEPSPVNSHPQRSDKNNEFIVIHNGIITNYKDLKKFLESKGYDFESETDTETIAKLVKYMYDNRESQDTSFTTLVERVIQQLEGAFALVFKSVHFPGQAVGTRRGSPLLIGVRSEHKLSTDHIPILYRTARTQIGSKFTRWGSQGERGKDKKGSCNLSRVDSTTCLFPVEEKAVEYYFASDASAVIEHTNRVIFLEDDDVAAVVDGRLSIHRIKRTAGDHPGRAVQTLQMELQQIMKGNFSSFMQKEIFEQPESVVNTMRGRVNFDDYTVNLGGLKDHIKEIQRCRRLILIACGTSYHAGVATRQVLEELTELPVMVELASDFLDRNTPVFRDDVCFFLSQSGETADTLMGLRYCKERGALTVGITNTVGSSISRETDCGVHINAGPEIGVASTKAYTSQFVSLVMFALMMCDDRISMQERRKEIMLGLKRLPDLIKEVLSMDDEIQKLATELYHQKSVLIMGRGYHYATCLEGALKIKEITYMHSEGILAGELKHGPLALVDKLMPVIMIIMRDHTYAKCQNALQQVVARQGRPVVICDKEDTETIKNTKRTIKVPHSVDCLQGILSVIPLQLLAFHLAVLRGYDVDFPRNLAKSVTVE

Target: AMPKα1 in experiments shown only in supplementary figures (endogenous or transfected not stated) (UniProt Q13131)
Assay: co-IP; co-IP of the AMPK complex (Fig. S4n); bait and constructs not shown; A375 cells with or without MMAE in Fig. S4o

binding: binds
Substance: glutamine fructose-6-phosphate aminotransferase 1 (GFAT1) (from UniProt Q06210 1-699) (enzyme)
